PubChem BioAssay AID1259254 – NCATS, 2017
Aim: 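Gene knock-downs that lead to re-replication, shown by excess G2 DNA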 (primary screen). Cell system: human HCT116 colorectal cancer cells. Reagents: single siRNA against human genes. Timing: 3 days. Read-out: 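Nuclei stained with Hoechst and imaged; cell-cycle phase assigned by DNA content; G2 share scaled per plate, non-targeting siRNA 0%, GMNN siRNA 100%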. Direction: G2 robust z-score and G2 cells, % of GMNN control: higher = more G2 cells, more excess DNA replication; raw share of cells in G2: higher = larger share of cells with G2 DNA content. Hit rule: 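An siRNA counts as active if its G2 robust z-score lies at least 5 MADs above the screen median; here such calls match roughly 38% of GMNN control or more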.
This is one part, drawn at random, of about 59,000 reagents. Of all reagents, about 1,550 (2.6%) got an active call. 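G2 share is only a proxy for re-replication; each gene was hit by three separate siRNAs, and active genes were retested.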 Raw values are not corrected between plates. Reagents against one gene are numbered here. Not given: the amount of reagent.

target gene,siRNA no.,G2 robust z-score,"G2 cells, % of GMNN control",raw share of cells in G2 (%),call
DOP1A,1,1.95,16.7,11.5,inactive
DOP1A,2,0.672,7.7,7.31,inactive
DOP1A,3,7.05,52.6,22.8,active
PCNX4,1,0.849,8.94,5.06,inactive
PCNX4,2,-0.0687,2.48,5.66,inactive
PCNX4,3,3.16,25.2,15.9,inactive
QRICH1,1,6.95,51.9,26,active
QRICH1,2,0.18,4.23,8.29,inactive
QRICH1,3,-0.678,-1.81,3.79,inactive
FGD6,1,-0.843,-2.96,3.38,inactive
FGD6,2,1.17,11.2,9,inactive
FGD6,3,2.65,21.6,15.9,inactive
NPHS1,1,-0.651,-1.61,4.74,inactive
NPHS1,2,-0.217,1.44,3.67,inactive
NPHS1,3,-0.677,-1.8,4.76,inactive

Active calls (from the list above):
target gene,siRNA no.,G2 robust z-score,"G2 cells, % of GMNN control",raw share of cells in G2 (%),call
DOP1A,3,7.05,52.6,22.8,active
QRICH1,1,6.95,51.9,26,active

More records follow.
target gene,siRNA no.,G2 robust z-score,"G2 cells, % of GMNN control",raw share of cells in G2 (%),call
MTFMT,1,-1.06,-4.49,2.78,inactive
MTFMT,2,1.84,15.9,13.1,inactive
MTFMT,3,-0.589,-1.18,4.46,inactive
PAFAH1B2,1,-0.505,-0.587,3,inactive
PAFAH1B2,2,-0.661,-1.68,4.57,inactive
PAFAH1B2,3,1.13,10.9,9.18,inactive
SYT5,1,-0.205,1.52,4.07,inactive
SYT5,2,-0.841,-2.95,3.47,inactive
SYT5,3,0.109,3.74,4.46,inactive
NAA80,1,2.4,19.8,10.5,inactive
NAA80,2,0.0818,3.54,7.77,inactive
NAA80,3,3.35,26.6,13,inactive
AVPR1A,1,-0.791,-2.59,4.91,inactive
AVPR1A,2,-0.667,-1.73,3.91,inactive
AVPR1A,3,1.29,12.1,6.97,inactive
